No constants are given. Whether binding was seen depends on the method and setting.

Assay [1] has as its target MatA (Dictyostelium discoideum) (UniProt D3UFF3). The experiment in a line: SEC-MALS; Superdex 75 10/300 GL, 0.5 ml/min; 20 mM phosphate (pH 7), 50 mM NaCl, 2 mM EDTA; both purified. (In general: Size exclusion chromatography separates by hydrodynamic size, large species first.)
In the next assay the target is T1, MatB (Dictyostelium discoideum, UniProt D3UFE5 1-107).
T1 sequence: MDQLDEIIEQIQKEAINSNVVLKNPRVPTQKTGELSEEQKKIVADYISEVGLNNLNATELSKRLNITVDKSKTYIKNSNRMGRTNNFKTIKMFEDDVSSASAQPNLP
The description is as above.

B1: MatA (protein, UniProt D3UFF3 1-107)
chain: MDPLDKIINDIKKEANDSGVTLAPLSVPKPKLEELSEQQKIILAEYIAEVGLQNITAITLSKKLNITVEKAKNYIKNSNRLGRTNNLKTIGILQEEVSSMEAKSMTW
Regarding B1, the binding entry in assay [1] was “no binding”.

B2: MatB (protein, UniProt D3UFE5 1-107)
chain: T1 sequence
B2: the binding result with MatB is “no binding”.

The values are drawn from PMC5580921, “Homeodomain-like DNA binding proteins control the haploid-to-diploid transition in Dictyostelium”.
